Assay results

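Genome-wide siRNA knockdown in TC32 Ewing sarcoma cells, comparing luciferase light from an NR0B1-promoter reporter with a CMV-promoter reporter 48 hours after transfection.
Each siRNA was applied at 20 nM.
A z-score of the log NR0B1-over-CMV signal, less the median of siRNAs with the same seed; more negative means a stronger specific loss of the NR0B1 reporter.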

This is part of the screen; most of the strongest results are not listed here.
Sequences are the guide (antisense) strand, without overhang.

{"sirna": "UUGGAUAGAACAAGUGACG", "gene": "MICALL2", "seed-corrected z-score": "-0.003717"}
{"sirna": "UUAAGGACAGUCUUGUUUU", "gene": "MRPL36", "seed-corrected z-score": "1.048"}
{"sirna": "AAACUUCAUCUUGCAGUUC", "gene": "CHRNA2", "seed-corrected z-score": "-1.341"}
{"sirna": "AAAGCUUCUAGGUUGUUCC", "gene": "VRK3", "seed-corrected z-score": "-0.9247"}
{"sirna": "AAAAGAAUCGAAGUAGCUA", "gene": "PLA2G12B", "seed-corrected z-score": "-0.0619"}
{"sirna": "UUGAAUUUCAGAUGCACAG", "gene": "TENM4", "seed-corrected z-score": "0.2696"}
{"sirna": "UCCAGAUCGAGUCGGAUAC", "gene": "MS4A13", "seed-corrected z-score": "-1.255"}
{"sirna": "UUUGCGAACAAUGUUAAUG", "gene": "ACO2", "seed-corrected z-score": "-0.01147"}
{"sirna": "UAGGUGAACACCCAGGAAC", "gene": "SPRYD4", "seed-corrected z-score": "0.5927"}
{"sirna": "UAUUUUUCUUUAGCUGCUC", "gene": "ARHGEF39", "seed-corrected z-score": "0.007021"}
{"sirna": "AGAUAGACCAGUGCUUGCC", "gene": "PICALM", "seed-corrected z-score": "-0.7764"}
{"sirna": "AGAAGUAUAAGUUGUAAGG", "gene": "PLEKHM3", "seed-corrected z-score": "0.2948"}
{"sirna": "UGUCAGAUAGGUCAUAGUC", "gene": "RPL3", "seed-corrected z-score": "-1.249"}
{"sirna": "UACCUGACCUGCUUGGUUC", "gene": "BBOF1", "seed-corrected z-score": "-0.3148"}
{"sirna": "UUUCGAGCAGUGGUAAAGG", "gene": "ABCD2", "seed-corrected z-score": "-0.02144"}
{"sirna": "AUGGUUUUCACUGACGGCU", "gene": "SLC38A10", "seed-corrected z-score": "-0.6705"}
{"sirna": "UCCGAGAUAUUAUUUCUGC", "gene": "ADARB1", "seed-corrected z-score": "0.3665"}
{"sirna": "UUUCCAUCAAGUUGAAGCG", "gene": "SF3B5", "seed-corrected z-score": "-1.014"}
{"sirna": "UUUAAGUGCAUAGUAUUUC", "gene": "CCDC169", "seed-corrected z-score": "0.5768"}
{"sirna": "UUGUUGUCCAGGUUAAUCC", "gene": "PRELP", "seed-corrected z-score": "-0.853"}
{"sirna": "UUUCAAUUCACCAGGUUCC", "gene": "C2CD2", "seed-corrected z-score": "-0.09054"}
{"sirna": "UAAGAAGUUAUUCAGCAUC", "gene": "OR5H1", "seed-corrected z-score": "0.9143"}
{"sirna": "UGGAGUCACAUGACCAUGG", "gene": "ATP5S", "seed-corrected z-score": "0.482"}
{"sirna": "UAGCAUAUCACUUAACAAC", "gene": "RNF217", "seed-corrected z-score": "0.286"}
{"sirna": "AGCUUAUCCACGACAUUGC", "gene": "BPIFA2", "seed-corrected z-score": "0.06532"}
{"sirna": "UUCGAGUAAAUGAAUGCUC", "gene": "HERC1", "seed-corrected z-score": "-0.007488"}
{"sirna": "AAACUAAAUCAUCUGUUAC", "gene": "SRP9P1", "seed-corrected z-score": "0.5424"}
{"sirna": "AAUAGUCUCCAUCAAGUCG", "gene": "LRRC45", "seed-corrected z-score": "-0.1463"}
{"sirna": "UACUAUGCAAGAAGUCACC", "gene": "COL4A3BP", "seed-corrected z-score": "0.04489"}
{"sirna": "UGGAUAGUUAAGGAUUAGC", "gene": "NF1", "seed-corrected z-score": "0.3149"}
{"sirna": "UCCUCUUUUUGCAUAGGCC", "gene": "BAD", "seed-corrected z-score": "0.6378"}
{"sirna": "AAUUCUUCUAGCAUCGUUG", "gene": "PCOLCE2", "seed-corrected z-score": "0.04542"}
{"sirna": "UCUCGGGAUAGUUGGAUGG", "gene": "KIAA0196", "seed-corrected z-score": "0.2235"}
{"sirna": "AUAUGAAACGACUUUACCU", "gene": "HSD52", "seed-corrected z-score": "-0.33"}
{"sirna": "UUUGUUCUUUCCGAGAGUC", "gene": "GABRA3", "seed-corrected z-score": "0.1742"}
{"sirna": "GAUGUAGACGUAGCCGUAG", "gene": "GPR25", "seed-corrected z-score": "-0.3591"}
{"sirna": "UGAACUCUCACAUUGGUCC", "gene": "APLP1", "seed-corrected z-score": "-0.696"}

Some entries from above, unchanged:

siRNA,gene,seed-corrected z-score
UUCGAGUAAAUGAAUGCUC,HERC1,-0.007488
AAUUCUUCUAGCAUCGUUG,PCOLCE2,0.04542
AAAAGAAUCGAAGUAGCUA,PLA2G12B,-0.0619

Source: PubChem BioAssay AID1159506 (NCATS, 2015).